ChEMBL document CHEMBL5674883, “The Heterochromatin Landscape in Migrating Cells and the Importance of H3K27me3 for Associated Transcriptome Alterations” (Cells, 2018)
This continues a long series; more values of the same kind are listed elsewhere.

The chains behind the UniProt entries cited, without tags or fusion partners.
UniProt Q61188, whole entry: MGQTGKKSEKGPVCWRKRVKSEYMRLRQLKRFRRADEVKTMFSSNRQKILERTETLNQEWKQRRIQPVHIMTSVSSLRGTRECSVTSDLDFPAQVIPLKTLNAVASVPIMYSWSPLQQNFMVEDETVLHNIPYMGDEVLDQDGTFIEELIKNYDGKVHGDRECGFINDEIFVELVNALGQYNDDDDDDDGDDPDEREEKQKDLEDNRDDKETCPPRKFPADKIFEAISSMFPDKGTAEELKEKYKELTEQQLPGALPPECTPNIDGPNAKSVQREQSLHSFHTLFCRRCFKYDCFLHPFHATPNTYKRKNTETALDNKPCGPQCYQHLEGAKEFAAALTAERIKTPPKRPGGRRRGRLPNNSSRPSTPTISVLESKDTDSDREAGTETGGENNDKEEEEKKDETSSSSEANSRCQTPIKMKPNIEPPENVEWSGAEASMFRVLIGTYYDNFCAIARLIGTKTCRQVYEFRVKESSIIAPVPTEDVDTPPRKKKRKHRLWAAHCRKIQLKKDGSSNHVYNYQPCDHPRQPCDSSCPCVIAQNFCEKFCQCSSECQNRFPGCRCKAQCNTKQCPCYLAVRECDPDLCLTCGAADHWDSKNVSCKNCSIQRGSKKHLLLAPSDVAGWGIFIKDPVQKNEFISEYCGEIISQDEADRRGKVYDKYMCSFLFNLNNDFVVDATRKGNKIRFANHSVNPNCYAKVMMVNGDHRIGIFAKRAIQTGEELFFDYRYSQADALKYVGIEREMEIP

What was measured:
Type in all cases: cell-based
[1] = target: T1, RNA polymerase II (Mus musculus) (UniProt P08775+Q8CFI7+P97760+A0A3Q4L2S8+Q80UW8+P61219+P62488+Q923G2+P60898+O08740+Q63871+P62876); test: Inhibition of RNA polymerase II in mouse B16-F1 migrating cells assessed as fold change in Zfp654-RNA stability at 0.1 mM measured by ChIP-seq analysis relative to control cells
[2] = target: T1, RNA polymerase II (Mus musculus); test: Inhibition of RNA polymerase II in mouse B16-F1 migrating cells assessed as fold change in Selenot-RNA stability at 0.1 mM measured by ChIP-seq analysis relative to control cells
[3] = target: T1, RNA polymerase II (Mus musculus); test: Inhibition of RNA polymerase II in mouse B16-F1 migrating cells assessed as fold change in Ppp4r3b-RNA stability at 0.1 mM measured by ChIP-seq analysis relative to control cells
[4] = target: T1, RNA polymerase II (Mus musculus); test: Inhibition of RNA polymerase II in mouse B16-F1 migrating cells assessed as fold change in Selenof-RNA stability at 0.1 mM measured by ChIP-seq analysis relative to control cells
[5] = target: T1, RNA polymerase II (Mus musculus); test: Inhibition of RNA polymerase II in mouse B16-F1 migrating cells assessed as fold change in Dnajc3-RNA stability at 0.1 mM measured by ChIP-seq analysis relative to control cells
[6] = target: T1, RNA polymerase II (Mus musculus); test: Inhibition of RNA polymerase II in mouse B16-F1 migrating cells assessed as fold change in Ate1-RNA stability at 0.1 mM measured by ChIP-seq analysis relative to control cells
[7] = target: T1, RNA polymerase II (Mus musculus); test: Inhibition of RNA polymerase II in mouse B16-F1 migrating cells assessed as fold change in Fam133b-RNA stability at 0.1 mM measured by ChIP-seq analysis relative to control cells
[8] = target: T1, RNA polymerase II (Mus musculus); test: Inhibition of RNA polymerase II in mouse B16-F1 migrating cells assessed as fold change in Cbx3-RNA stability at 0.1 mM measured by ChIP-seq analysis relative to control cells
[9] = target: T1, RNA polymerase II (Mus musculus); test: Inhibition of RNA polymerase II in mouse B16-F1 migrating cells assessed as fold change in Pola1-RNA stability at 0.1 mM measured by ChIP-seq analysis relative to control cells
[10] = target: T1, RNA polymerase II (Mus musculus); test: Inhibition of RNA polymerase II in mouse B16-F1 migrating cells assessed as fold change in Mef2c-RNA stability at 0.1 mM measured by ChIP-seq analysis relative to control cells
[11] = target: T1, RNA polymerase II (Mus musculus); test: Inhibition of RNA polymerase II in mouse B16-F1 migrating cells assessed as fold change in Tmem97-RNA stability at 0.1 mM measured by ChIP-seq analysis relative to control cells
[12] = target: T1, RNA polymerase II (Mus musculus); test: Inhibition of RNA polymerase II in mouse B16-F1 migrating cells assessed as fold change in Pigk-RNA stability at 0.1 mM measured by ChIP-seq analysis relative to control cells
[13] = target: T1, RNA polymerase II (Mus musculus); test: Inhibition of RNA polymerase II in mouse B16-F1 migrating cells assessed as fold change in Pcm1-RNA stability at 0.1 mM measured by ChIP-seq analysis relative to control cells
[14] = target: T1, RNA polymerase II (Mus musculus); test: Inhibition of RNA polymerase II in mouse B16-F1 migrating cells assessed as fold change in Zfp386-RNA stability at 0.1 mM measured by ChIP-seq analysis relative to control cells
[15] = target: T1, RNA polymerase II (Mus musculus); test: Inhibition of RNA polymerase II in mouse B16-F1 migrating cells assessed as fold change in Pfkp-RNA stability at 0.1 mM measured by ChIP-seq analysis relative to control cells
[16] = target: Histone-lysine N-methyltransferase EZH2 (Mus musculus) (UniProt Q61188); test: Inhibition of EZH2 in mouse B16-F1 migrating cells assessed as fold change in H3K27me3-buffered regulated Ttc39b-mRNA expression at 3 uM measured by ChIP-seq analysis relative to control cells
[17] = target: Histone-lysine N-methyltransferase EZH2 (Mus musculus) (UniProt Q61188); test: Inhibition of EZH2 in mouse B16-F1 migrating cells assessed as fold change in H3K27me3-buffered regulated Cep57-mRNA expression at 3 uM measured by ChIP-seq analysis relative to control cells
[18] = target: Histone-lysine N-methyltransferase EZH2 (Mus musculus) (UniProt Q61188); test: Inhibition of EZH2 in mouse B16-F1 migrating cells assessed as fold change in H3K27me3-buffered regulated Rabggtb-mRNA expression at 3 uM measured by ChIP-seq analysis relative to control cells
[19] = target: Histone-lysine N-methyltransferase EZH2 (Mus musculus) (UniProt Q61188); test: Inhibition of EZH2 in mouse B16-F1 migrating cells assessed as fold change in H3K27me3-buffered regulated Adgrg3-mRNA expression at 3 uM measured by ChIP-seq analysis relative to control cells
[20] = target: Histone-lysine N-methyltransferase EZH2 (Mus musculus) (UniProt Q61188); test: Inhibition of EZH2 in mouse B16-F1 migrating cells assessed as fold change in H3K27me3-buffered regulated Gtf2h1-mRNA expression at 3 uM measured by ChIP-seq analysis relative to control cells
[21] = target: Histone-lysine N-methyltransferase EZH2 (Mus musculus) (UniProt Q61188); test: Inhibition of EZH2 in mouse B16-F1 migrating cells assessed as fold change in H3K27me3-buffered regulated Ice2-mRNA expression at 3 uM measured by ChIP-seq analysis relative to control cells
[22] = target: Histone-lysine N-methyltransferase EZH2 (Mus musculus) (UniProt Q61188); test: Inhibition of EZH2 in mouse B16-F1 migrating cells assessed as fold change in H3K27me3-buffered regulated Zfp276-mRNA expression at 3 uM measured by ChIP-seq analysis relative to control cells
[23] = target: Histone-lysine N-methyltransferase EZH2 (Mus musculus) (UniProt Q61188); test: Inhibition of EZH2 in mouse B16-F1 migrating cells assessed as fold change in H3K27me3-independent regulated Tnfsf9-mRNA expression at 3 uM measured by ChIP-seq analysis relative to control cells
[24] = target: Histone-lysine N-methyltransferase EZH2 (Mus musculus) (UniProt Q61188); test: Inhibition of EZH2 in mouse B16-F1 migrating cells assessed as fold change in H3K27me3-buffered regulated Hlf-mRNA expression at 3 uM measured by ChIP-seq analysis relative to control cells
[25] = target: Histone-lysine N-methyltransferase EZH2 (Mus musculus) (UniProt Q61188); test: Inhibition of EZH2 in mouse B16-F1 migrating cells assessed as fold change in H3K27me3-dependent regulated Rhob-mRNA expression at 3 uM measured by ChIP-seq analysis relative to control cells
[26] = target: Histone-lysine N-methyltransferase EZH2 (Mus musculus) (UniProt Q61188); test: Inhibition of EZH2 in mouse B16-F1 migrating cells assessed as fold change in H3K27me3-buffered regulated Flvcr1-mRNA expression at 3 uM measured by ChIP-seq analysis relative to control cells
[27] = target: Histone-lysine N-methyltransferase EZH2 (Mus musculus) (UniProt Q61188); test: Inhibition of EZH2 in mouse B16-F1 migrating cells assessed as fold change in H3K27me3-independent regulated Map2k3os-mRNA expression at 3 uM measured by ChIP-seq analysis relative to control cells
[28] = target: Histone-lysine N-methyltransferase EZH2 (Mus musculus) (UniProt Q61188); test: Inhibition of EZH2 in mouse B16-F1 migrating cells assessed as fold change in H3K27me3-buffered regulated Stc1-mRNA expression at 3 uM measured by ChIP-seq analysis relative to control cells
[29] = target: Histone-lysine N-methyltransferase EZH2 (Mus musculus) (UniProt Q61188); test: Inhibition of EZH2 in mouse B16-F1 migrating cells assessed as fold change in H3K27me3-buffered regulated Tceanc-mRNA expression at 3 uM measured by ChIP-seq analysis relative to control cells
[30] = target: Histone-lysine N-methyltransferase EZH2 (Mus musculus) (UniProt Q61188); test: Inhibition of EZH2 in mouse B16-F1 migrating cells assessed as fold change in H3K27me3-buffered regulated Skida1-mRNA expression at 3 uM measured by ChIP-seq analysis relative to control cells

What does the source list for `OC[C@H]1O[C@@H](n2cnc3cc(Cl)c(Cl)cc32)[C@H](O)[C@@H]1O`?
log2FC [1]: -0.58; log2FC [2]: -0.66; log2FC [3]: -0.52; log2FC [4]: -0.75; log2FC [5]: -0.42; log2FC [6]: -0.5; log2FC [7]: -0.5; log2FC [8]: -0.8; log2FC [9]: -0.81; log2FC [10]: -0.48; log2FC [11]: 0.52; log2FC [12]: -0.41; log2FC [13]: -0.69; log2FC [14]: -0.74; log2FC [15]: 0.6

For `CCCc1cc(C)[nH]c(=O)c1CNC(=O)c1cc(-c2ccnc(N3CCN(C)CC3)c2)cc2c1cnn2C(C)C`, which log2FC [16] is on record?
The log2FC was 0.54.

What about the log2FC [17] of the same molecule?
The log2FC was -0.54.

And the log2FC [18]?
The log2FC was -0.41.

And the log2FC [19]?
Its log2FC is 1.64.

And the log2FC [20]?
The log2FC was -0.38.

What about the log2FC [21] of the same molecule?
The log2FC was -0.43.

What about the log2FC [22] of the same molecule?
Its log2FC is -0.39.

What about the log2FC [23] of the same molecule?
The log2FC was -1.35.

What about the log2FC [24] of the same molecule?
Its log2FC is 0.74.

And the log2FC [25]?
Its log2FC is 0.33.

What about the log2FC [26] of the same molecule?
Its log2FC is 0.4.

And the log2FC [27]?
The log2FC was 0.62.

And the log2FC [28]?
Its log2FC is 1.12.

What about the log2FC [29] of the same molecule?
Its log2FC is -0.95.

And the log2FC [30]?
The log2FC was -0.54.
